Laboratory results: PubChem BioAssay AID686937 (Drosophila RNAi Screening Center, 2013)

- Test: 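Genes in the fly needed for secretion of protein constitutively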 (primary screen)
- Cell system: Drosophila S2 cells expressing secreted horseradish peroxidase
- Reagents: long dsRNA against Drosophila genes
- Duration: about 5.5 days (5 days dsRNA, then 12 h reporter induction)
- Treatment: reporter expression induced after 5 days of dsRNA, read 12 h later; inducer not stated
- Detection: 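After 5 days of dsRNA and 12 h of reporter induction, medium peroxidase read by chemiluminescence and scored as per-plate z-score; higher values mean more reporter released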
- Scale: z-score: higher = more reporter secreted into medium
The screen tested about 23,000 reagents; below is an unselected part of those that have a named target and a result. 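Reduced-secretion tags in replicate 1 do not always agree with the z-scores; no criterion for assigning the tags was given.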 Further read-outs or replicates are left out here. The record does not give: the amount of reagent.

| gene knocked down | amplicon | z-score, replicate 1 | z-score, replicate 2 | z-score, replicate 3 |
| --- | --- | --- | --- | --- |
| CR18166 (pseudo) | DRSC17260 | 0.07 | -0.08 | – |
| CR18166 (pseudo) | DRSC18147 | 0.43 | 0.42 | – |
| CycY (Cyclin Y) | DRSC02420 | -0.21 | 0.17 | – |
| CG31445 | DRSC14443 | 0.52 | 0.45 | – |
| CG8349 | DRSC03083 | 0.46 | 0.27 | – |
| ClC-a (Chloride channel-a) | DRSC14947 | 0.08 | 0.02 | – |
| ClC-a (Chloride channel-a) | DRSC14948 | 0.23 | 0.14 | – |
| ClC-a (Chloride channel-a) | DRSC16142 | 0.29 | 0.32 | – |
| su(f) (suppressor of forked) | DRSC20907 | -0.24 | 0.15 | – |
| CARPB (Carbonic anhydrase-related protein B) | DRSC18437 | 0.23 | 0.61 | 0.2 |
| CARPB (Carbonic anhydrase-related protein B) | DRSC18438 | 0.35 | 0.68 | – |
| CG1943 | DRSC12576 | 0.31 | 0.17 | – |
| CG32091 | DRSC10141 | 0.41 | 0.36 | – |
| CG32091 | DRSC10820 | -0.03 | 0.22 | – |
| CG13311 | DRSC09982 | 0.39 | 0.29 | – |
| brat (brain tumor) | DRSC03497 | -0.14 | 0.1 | – |
| CG8635 | DRSC07226 | 0.22 | 0.17 | – |
| baz (bazooka) | DRSC20309 | 0.21 | 0.06 | – |
| CG9864 | DRSC07346 | 0.34 | 0.21 | – |
| Cpr97Ea (Cuticular protein 97Ea) | DRSC15974 | 0.09 | 0.23 | – |
| CG15036 | DRSC17968 | 0.23 | -0.11 | – |
| Uvrag (UV-resistance associated gene) | DRSC02932 | 0.23 | 0.16 | – |
| CG1737 | DRSC19771 | -2.5 | -0.07 | – |
| FarO (Fatty acyl-CoA reductase in oenocytes) | DRSC18475 | 0.3 | 0.41 | – |
| d4 | DRSC04881 | 0.5 | 0.42 | – |
| d4 | DRSC22674 | -0.25 | -0.14 | – |
| nebu (nebulosa) | DRSC09807 | 0.41 | 0.31 | – |
| nebu (nebulosa) | DRSC09808 | 0.2 | 0.5 | – |
| Vps53 (Vacuolar protein sorting 53) | DRSC00595 | -0.04 | 0.1 | – |
| BCAS2 | DRSC15693 | -0.56 | -0.16 | – |
| CG13678 | DRSC10036 | 0.68 | 0.56 | – |
| Su(var)2-HP2 | DRSC06204 | 0.4 | 0.27 | – |
| CG17570 | DRSC01770 | 0.63 | 0.34 | – |
| CG17570 | DRSC03754 | -0.52 | 0.04 | – |

Copied from the listing (4 entries):
| gene knocked down | amplicon | z-score, replicate 1 | z-score, replicate 2 | z-score, replicate 3 |
| --- | --- | --- | --- | --- |
| CR18166 (pseudo) | DRSC18147 | 0.43 | 0.42 | – |
| CycY (Cyclin Y) | DRSC02420 | -0.21 | 0.17 | – |
| CG31445 | DRSC14443 | 0.52 | 0.45 | – |
| CG8349 | DRSC03083 | 0.46 | 0.27 | – |
